Measured values reported in paper doi:10.1101/2021.10.27.466115.

The sequences below were run against GST-Rib-PSQ DNA-binding domain (UniProt Q7KF43) (assay: EMSA).

Binding result, binds:
AACGTGTCTCGCGCGGGCACACTGGCCTCTTTCTTTTCTGCGCACCACGT (double strand) [RpS3]
AACTGCCACTTCCTTTCTTTTTCGTTCCACGTTTCCGGTGAGTGCATGTG (double strand) [RpL7A]
ACACAACCACCCTGGTCACACGGCATCCGGCGGGGGCGGGCGGGGCCGGC (double strand) [RpS17*]
ACACAACCACCCTGGTCACACGGCATCCTTCTTTTTCTTTCGTTTCCGGC (double strand) [RpS17]
ACTGCCATTTCCTTTCTTTTTCGTTCCACGTTTCCGGTGAGTGCATGTGC (double strand) [RpL17]
ATCCCTTCCGTTTCCCTTTCTTTTCGTCTTCACGTTTCCGGTGAGTGCGT (double strand) [RpS10b]
CCCTGGTCACACCGCTCTAGACATAACCTTCCTTTTCCAATAATTTTTGT (double strand) [RpL6]
CGCGGCCACACTATCCTTTCCTTCTTTTCTTACAAGTTTCCGGTGAGTGC (double strand) [RpL11]
GGCAGCCACATTAATTCGGCCTTCTTTTCTTTTCCCGTTTCCGGTGAGTG (double strand) [RpS18]
TTCAACTTCCTGTCACGCTGTGTGTGTGTTCTTTCTTTCCTTTGATTCTG (double strand) [RpS27A]
TTCCGGCTGTCAAATTTTTCTTTCTTTCCTAGCCACGACGAGGTCGACAG (double strand) [RpL19]

For at least one entry, the source does not settle the construct or the ends of the probe.
